Some entries share one result that the patent states for a list of compounds.
Molecular target: T1, human cloned 5-HT6 receptors (Homo sapiens, UniProt P50406)
T1 construct: expressed in transfected cells
Assay: 5-HT6 receptor affinity (procedures outlined in WO98/27081)
Format: binding
From the text: Compounds can be tested following the procedures outlined in WO98/27081.

Sequences of proteins named here, by UniProt entry; tags and fusion partners are left off.
UniProt P50406, whole entry: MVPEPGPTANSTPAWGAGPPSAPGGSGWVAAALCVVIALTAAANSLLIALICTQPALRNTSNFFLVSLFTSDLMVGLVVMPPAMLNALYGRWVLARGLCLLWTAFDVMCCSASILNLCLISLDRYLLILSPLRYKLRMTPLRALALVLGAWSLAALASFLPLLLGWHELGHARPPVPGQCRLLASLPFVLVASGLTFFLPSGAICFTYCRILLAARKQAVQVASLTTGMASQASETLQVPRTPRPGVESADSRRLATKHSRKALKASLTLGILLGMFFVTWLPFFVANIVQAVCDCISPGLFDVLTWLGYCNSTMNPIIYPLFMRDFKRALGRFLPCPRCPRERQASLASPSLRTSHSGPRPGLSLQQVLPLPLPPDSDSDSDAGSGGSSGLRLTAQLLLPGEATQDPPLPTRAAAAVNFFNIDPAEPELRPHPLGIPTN

For `O=S(=O)(c1ccccc1)c1cccc(N2CCNCC2)c1` [Example E1, 1-(3-Phenylsulfonyl-phenyl)piperazine], the “pKi values at human cloned 5-HT6 receptors” value was over 7.5.

— patent US7439245B2, “Compounds” (Glaxo Group Limited, priority 2003, dated 2008)
